Measurements published in patent publication US12648572B2, “Proteolytically stable U1-agatoxin-Ta1b variant polypeptides for pest control” (Vestaron Corporation, priority 2020, dated 2026).

Assay: Glycosylation of TVPs expressed in K. lactis (LC-MS)
Parameters: species or system Kluyveromyces lactis
Settings: +162 to MW by LC-MS, expression in K. lactis

EPDEICRARMTNKEFTYKSNVCNNCGDQVAACEAECFRNDVYRACHEAQKG (TVP-T43R) [R (Position 43)]
Glycosylation (Y/N): No

EPDEICRARMTNKEFTYKSNVCNNCGDQVAACEAECFRNDVYTACHEAQKG (listed as Eratigena agrestis) [WT Ta1b, reference compound]
Glycosylation (Y/N): Yes
